Measurements reported in patent US20260125454A1.
These are yes or no findings as the source states them, for the method shown. Some binding calls cover weakened binding; strength is not graded here.

T1: rat α-CGRP (rat) (UniProt P01256)
T1 sequence (peptide, looked up): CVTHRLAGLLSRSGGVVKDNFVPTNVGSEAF


Biological target: T1, rat α-CGRP (rat)
Experiment: ELISA, hybridoma supernatant

binding | Binder
binds | 3E5 (antibody, V domains shown) VH: EVQLQQSGPELVKPGASVKISCKTSGYTFTDYNMHWVKQSHGKSLEWIGYISPYNGGTAYNQKFKFKSTLTVDTSSSTAYMELRSLTSEDSAVYYCAREGLGGYWGQGTTLTVSS VL: DIVLTQSPASLAVSLGQRATISCKASQNIDYDGYTYLNWYQQKPGQPPKVLIYSIFNLESGIPARFSGSGSGTDFTLNIHPVEEEDAATYYCQQSNEVPYTFGGGTKLEIK
binds | 3C1 (antibody, V domains shown) VH: EVQLQQSGPELVKPGASMKISCKASGYSFTGYTMNWVKQSHGNNLEWIGLINPYIGNTHYNQKFKDKATFTVDRSSSTAYMALLSLTSEDSAVYYCARELDSGFDYWGQGTTLTVSS VL: DVLMTQTPLSLPVSLGDQASLSCRSSQNIVHSNGDTYLEWYLQKPGQSPKLLIYKVSNRFSGVPDRFSGSGSGTDFTLKISRVEAEDLGVYYCYQGSHVPWTFGGGTKLEIK
